Experimental data: paper doi:10.1101/2024.09.20.612365, “Preventing Inappropriate Signals Pre- and Post-Ligand Perception by a Toggle-Switch Mechanism of ERECTA” (bioRxiv, 2024)
Where a chain is given by its changes, count along the chain named. No constants are given. Whether binding was seen depends on the method and setting. For some of these results: In cells and extracts the contact can be indirect. Some entries that bind do so weakly or less than the wild type. Tags and fused reporters may be left off the sequences shown. One block for each binder: values may come before it.

Columns and labels:
PUB31-MYC (Arabidopsis) = molecular target: T1, PUB31-MYC (Arabidopsis) (UniProt Q9FHN9); test: co-IP; Arabidopsis protoplasts co-expressing ER-HA variants and PUB31-MYC (Fig. S7B); legend not shown
T1 sequence: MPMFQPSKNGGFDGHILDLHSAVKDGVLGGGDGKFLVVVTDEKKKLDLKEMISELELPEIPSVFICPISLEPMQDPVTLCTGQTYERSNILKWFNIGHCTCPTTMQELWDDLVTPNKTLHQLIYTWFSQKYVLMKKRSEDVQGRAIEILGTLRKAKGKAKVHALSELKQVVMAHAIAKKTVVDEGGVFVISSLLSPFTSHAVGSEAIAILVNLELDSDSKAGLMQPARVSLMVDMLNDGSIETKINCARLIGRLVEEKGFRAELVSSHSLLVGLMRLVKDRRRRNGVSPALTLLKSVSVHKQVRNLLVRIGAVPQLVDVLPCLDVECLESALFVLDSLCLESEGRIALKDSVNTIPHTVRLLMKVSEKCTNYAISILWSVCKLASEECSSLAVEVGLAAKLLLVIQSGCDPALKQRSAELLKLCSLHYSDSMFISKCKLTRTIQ

[1] = molecular target: T2, PUB31 (as used in Fig. S7A) (Arabidopsis) (UniProt Q9FHN9); test: BLI; PUB31 with ER_CD and its C-terminal deletion version (Fig. S7A); legend and methods not shown, method taken from the paragraph on the BLI assays
T2 sequence: T1 sequence

ER-FLAG (Arabidopsis) = molecular target: T3, ER-FLAG (Arabidopsis) (UniProt Q42371); test: co-IP; proteins from double transgenic Arabidopsis lines (ERpro::BKI1-YFP with ERpro::ER-FLAG variants) immunoprecipitated with anti-FLAG beads, blots with anti-FLAG and anti-GFP; also seedlings treated with MEPF2 peptide (association decreased, Fig. S6)
T3 sequence: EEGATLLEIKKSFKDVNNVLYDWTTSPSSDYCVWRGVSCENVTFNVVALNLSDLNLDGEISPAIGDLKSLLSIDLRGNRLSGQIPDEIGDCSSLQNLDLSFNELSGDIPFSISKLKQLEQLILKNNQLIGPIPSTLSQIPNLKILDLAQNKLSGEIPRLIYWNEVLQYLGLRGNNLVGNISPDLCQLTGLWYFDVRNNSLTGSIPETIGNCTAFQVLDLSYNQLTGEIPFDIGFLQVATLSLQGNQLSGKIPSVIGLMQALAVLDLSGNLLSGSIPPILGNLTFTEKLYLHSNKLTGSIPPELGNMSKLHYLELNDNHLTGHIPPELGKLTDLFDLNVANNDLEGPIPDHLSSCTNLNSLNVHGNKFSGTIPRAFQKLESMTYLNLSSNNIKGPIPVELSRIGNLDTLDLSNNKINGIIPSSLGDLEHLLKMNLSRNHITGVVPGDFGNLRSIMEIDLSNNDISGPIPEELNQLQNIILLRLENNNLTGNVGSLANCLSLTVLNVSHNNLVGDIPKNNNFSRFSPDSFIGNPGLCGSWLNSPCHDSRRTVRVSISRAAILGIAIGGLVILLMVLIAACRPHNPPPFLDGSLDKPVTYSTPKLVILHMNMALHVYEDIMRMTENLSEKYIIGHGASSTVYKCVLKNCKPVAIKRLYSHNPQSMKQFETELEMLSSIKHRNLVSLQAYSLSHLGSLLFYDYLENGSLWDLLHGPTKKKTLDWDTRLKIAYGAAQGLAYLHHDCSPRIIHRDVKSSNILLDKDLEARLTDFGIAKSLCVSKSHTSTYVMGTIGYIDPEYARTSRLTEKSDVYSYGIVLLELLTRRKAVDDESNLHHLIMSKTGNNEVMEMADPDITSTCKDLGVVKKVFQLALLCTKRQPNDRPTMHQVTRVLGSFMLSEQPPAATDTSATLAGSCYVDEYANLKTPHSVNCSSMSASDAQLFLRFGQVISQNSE

[2] = molecular target: T4, ER_(T/S8A)-FLAG, phosphonull version (Arabidopsis) (UniProt Q42371); test: as above
T4 sequence: T3 sequence with T923A, S926A, S930A, S931A, S933A, S935A, S948A, S951A

binding (PUB31-MYC (Arabidopsis)): binds
B1: ER-HA (receptor, UniProt Q42371 25-976)
chain: T3 sequence

binding [1]: binds
B2: MBP-fused full-length ER cytoplasmic domain (MBP-ER_CD) (domain or fragment, Arabidopsis, UniProt Q42371 602-976, looked up)
chain: CRPHNPPPFLDGSLDKPVTYSTPKLVILHMNMALHVYEDIMRMTENLSEKYIIGHGASSTVYKCVLKNCKPVAIKRLYSHNPQSMKQFETELEMLSSIKHRNLVSLQAYSLSHLGSLLFYDYLENGSLWDLLHGPTKKKTLDWDTRLKIAYGAAQGLAYLHHDCSPRIIHRDVKSSNILLDKDLEARLTDFGIAKSLCVSKSHTSTYVMGTIGYIDPEYARTSRLTEKSDVYSYGIVLLELLTRRKAVDDESNLHHLIMSKTGNNEVMEMADPDITSTCKDLGVVKKVFQLALLCTKRQPNDRPTMHQVTRVLGSFMLSEQPPAATDTSATLAGSCYVDEYANLKTPHSVNCSSMSASDAQLFLRFGQVISQNSE
notes: ERECTA (ER) LRR receptor kinase, Arabidopsis; full-length cytoplasmic domain (juxtamembrane domain, kinase domain, C-terminal tail); source: expressed and purified (recombinantly purified)

binding (ER-FLAG (Arabidopsis)): binds
binding [2]: binds
B3: GST-BKI1 (BRI1 KINASE INHIBITOR 1) (natural protein, Arabidopsis, UniProt Q9FMZ0 1-337, looked up)
chain: METNLQQVKNSSQTFSEKQNPKQEASPSPISSTCSSPSHDFSFTISLQPLSSSSKHISPTLRSPSKTTSSYQQTDPFAVDLSPADEIFFHGHLLPLHLLSHLPVSPRTSTGSYNDGFTLPVKDILPDQPTNNNNNTENAITNISTEAKDDNTEDKAEGEIRVKTKPIKSFSLFGLSKWRKGFESNEREQEQQQQKIKKPMSLDLSHAVKKYIRMLFQKRGNGTQFWNRRQTSSYSFSSSLMGPNGNSKTMINGSYNKRDLIRGRRGELFSAPASMRTSPTNSGHLRVSTAGLSSSSGSTSSSSSDSTMEELQAAIQAAIAHCKNSSAVDRDDKVKDS
notes: source: recombinantly purified
